# Several values for one entry are separate records, joined by “and”; a condition that tells them apart may be missing. Equal values may be shown once. In all, about 300,000 compounds went through this assay and about 5,400 (1.8%) were called active. The inconclusive results got no clear call from the source; some entries with a clear call stand among them for comparison. Calls come from the whole dose curve; tested in HEK293 cells. Where the call is inconclusive, the potency comes from a doubtful curve fit.
# Test: qHTS for inhibitors of binding or entry into cells for Marburg Virus
# Settings: Marburg virus pseudotyped entry inhibition, cell reporter; activity change, negative = inhibition: at 37.8 µM (top of the series) unless noted
# % is set by controls: 0 for no effect and ±100 for the full control effect; potency is the fitted concentration of half-maximal effect.
Compound,"activity change, negative = inhibition",Potency
NC(=O)C1CCCN1Cc1ccc2c(c1)OCO2 (centres undefined),inactive: -15.1%,–
NCC(O)COc1ccc2c(c1)OCO2 (centres undefined),–,"inconclusive: 6.31 µM [activator, partial curve, poor fit]"
Cc1cc(NC(=O)NC2CC(=O)N(c3ccc4c(c3)OCCO4)C2)no1 (centres undefined),inactive: 0.0609% [at 46.1 µM],–
O=P(NC1CCCCC1)(Oc1ccccc1)Oc1ccccc1,–,"inconclusive: 35.5 µM [inhibitor, single point]"
COc1ccc(C2(O)CCN(C(=O)NC3CCCCC3)CC2)cc1,–,active: 3.66 µM
N#CC(C#N)=Cc1ccc(OCC(=O)N2CCOCC2)cc1,inactive: -17.7% [at 46.1 µM],–
CC(=O)N(c1ccccc1)c1nc(/C=C/C(=O)Nc2c(C)cc(C)cc2C)cs1,–,"inconclusive: 1.26 µM [inhibitor, single point]"
CN1CCCC(OC(=O)c2ccc(C(C)(C)C)cc2)C1 (centres undefined),inactive: 8.76%,–
CCOc1ccc2nc(C(=O)N3CCCC(C)C3)sc2c1 (centres undefined),–,"inconclusive: 20 µM [inhibitor, single point]"
Cc1ccc(C)c(NC(=S)NC(C)C(c2ccccc2)N2CCN(C)CC2)c1 (centres undefined),–,"inconclusive: 10 µM [inhibitor, partial curve, poor fit]"
COC1=C(NCc2ccc3c(c2)OCO3)C(=O)C(OC)=C(NCc2ccc3c(c2)OCO3)C1=O,–,"inconclusive: 1.58 µM [inhibitor, partial curve, poor fit]"
CCOC(=O)COn1c(-n2nc(C)cc2C)nc2ccccc2c1=O,inactive: 3.78%,–
CCOC(=O)C1CCCN(Cc2cc(Br)c(OC)cc2OC)C1 (centres undefined),–,"inconclusive: 23.1 µM [inhibitor, single point]"
Cc1ccc(Cl)cc1N1CCN(C(c2ccc(F)cc2)c2nnc(-c3ccccc3)o2)CC1 (centres undefined),–,"inconclusive: 8.91 µM [inhibitor, partial curve, poor fit]"
CCOC(=O)Cn1c(=O)oc2cc(S(=O)(=O)NCc3ccc(F)cc3)ccc21,–,"inconclusive: 2 µM [inhibitor, partial curve, poor fit]"
COc1cc(C(=O)NCCOc2cc(C)ccc2C(C)C)cc(OC)c1OC,–,active: 3.16 µM
O=C1CC(c2ccccc2)Cc2[nH]c(=O)c(-c3nc(-c4cccc(Cl)c4)cs3)cc21 (centres undefined),inactive: -0.343% [at 46.1 µM],–
O=S(=O)(c1ccc(S(=O)(=O)N(Cc2ccc(F)cc2)C2CCCC2)cc1)N1CCCC1,–,active: 10 µM
c1ccc(-c2nc(-c3ccccc3)c(NC3CCCCC3)o2)cc1,–,"inconclusive: 5.31 µM [activator, single point]"
COc1ccc(C2CC(c3ccc4ccccc4c3OC(C)=O)=NN2C(C)=O)cc1 (centres undefined),–,"inconclusive: 20 µM [inhibitor, single point]"
COc1cc(OC)cc(C(=O)Nn2cc(C(=O)Nc3ccccc3F)c3ccccc3c2=O)c1,–,"inconclusive: 2.31 µM [activator, partial curve]"
O=C(C[n+]1ccc2ccccc2c1)Nc1cc(C(F)(F)F)ccc1Cl,–,"inconclusive: 35.5 µM [inhibitor, single point]"
O=C(c1ccc(Cl)c(S(=O)(=O)Nc2ccc(F)cc2)c1)N1CCN(c2ccccn2)CC1,–,active: 14.6 µM

Compound,"activity change, negative = inhibition",Potency
CCOc1ccc(CCNC(=O)CSc2cc(=O)n(C)c3ccccc23)cc1OCC,–,"inconclusive: 3.55 µM [inhibitor, full curve]"
COc1ccc(CCNC(=O)C2CC2)cc1OC,inactive: -2.38%,–
O=C(C1CCC1)N1CCN(c2cccc(C(F)(F)F)c2)CC1,–,"inconclusive: 12.6 µM [inhibitor, partial curve, poor fit]"
O=C(COC(=O)c1cccc(OC(F)F)c1)NC1CCCC1,–,"inconclusive: 3.16 µM [activator, single point]"
CC1CCC(NC(=O)C2COc3ccccc3O2)CC1 (centres undefined),inactive: -3.52%,–
O=C(CN(C(=O)CNC(=O)c1ccco1)c1ccc2c(c1)OCCO2)NC1CCCCC1,–,"inconclusive: 6.31 µM [inhibitor, single point]"
COc1cccc(NC(=O)c2cnsn2)c1,inactive: 24%,–
Oc1[nH]c2ccccc2c1/C=N/N1CCCCC1,–,"inconclusive: 5.01 µM [inhibitor, single point]"
O=C(CNC(=O)c1ccccc1Br)N/N=C/c1ccco1,–,"inconclusive: 14.1 µM [activator, partial curve, poor fit]"
CCOc1ccc(-c2cc(CCCC(=O)Nc3cccc(OC)c3)no2)cc1,–,"inconclusive: 1.46 µM [inhibitor, full curve, poor fit]"
CN(C)CCCN(C(=O)c1ccc(S(=O)(=O)N2CCCCCC2)cc1)c1nc2cc3c(cc2s1)OCCO3,–,"inconclusive: 35.5 µM [inhibitor, single point]"
CC1CCCCN1CCNC(=O)c1ccc2c(=O)n(CCc3ccccc3)c(=O)[nH]c2c1 (centres undefined),–,"inconclusive: 4.61 µM [inhibitor, partial curve, poor fit]"
CCCn1c(SCC(=O)Nc2ccc(Cl)cc2)n[nH]c1=O,inactive: -30%,–
COC(=O)/C=C1/S/C(=N/NC(=O)c2ccc(OC)cc2)NC1=O,–,"inconclusive: 0.631 µM [activator, partial curve, poor fit]"
CCc1ccccc1OCC(=O)Nc1ccc(N2CCCC2)cc1C,–,"inconclusive: 3.55 µM [inhibitor, partial curve, poor fit]"
Cc1cccc2c(CC(=O)Nc3ccccc3)noc12,inactive: 2.19%,–
Cn1nnnc1SCC(=O)c1ccc2c(c1)OCCO2,inactive: 9.46% [at 46.1 µM],–
N/C(=N\OC(=O)c1cc(Br)ccc1Cl)c1ccccn1,–,"inconclusive: 1.78 µM [activator, partial curve, poor fit]"
COc1ccccc1N(C(=O)c1ccco1)C(C(=O)NC1CCCC1)c1cccs1 (centres undefined),inactive: -5.24% [at 46.1 µM],–
COCCNC(=O)C(c1ccc(C)o1)N(C(=O)c1snc(C(N)=O)c1N)c1ccc(C)cc1 (centres undefined),–,"inconclusive: 4.61 µM [inhibitor, full curve, poor fit]"
O=C1CCCC(C(C(=O)OCc2ccccc2)C(=O)OCc2ccccc2)C1 (centres undefined),–,"inconclusive: 18.8 nM [activator, full curve] and inconclusive: 84.1 nM [activator, full curve, poor fit]"
COC(=O)c1ccccc1NC1=C/C(=N\S(=O)(=O)c2ccc(C(=O)O)cc2)c2ccccc2C1=O,–,"inconclusive: 11.2 µM [inhibitor, partial curve, poor fit]"
CCCOc1ccc(Cc2c(O)nc(SC)[nH]c2=O)cc1,–,"inconclusive: 3.55 µM [inhibitor, partial curve, poor fit]"

# Rewritten as tab-separated lines: part of the list above
Compound	activity change, negative = inhibition	Potency
Cc1cccc2c(CC(=O)Nc3ccccc3)noc12	inactive: 2.19%	–
Cn1nnnc1SCC(=O)c1ccc2c(c1)OCCO2	inactive: 9.46% [at 46.1 µM]	–
N/C(=N\OC(=O)c1cc(Br)ccc1Cl)c1ccccn1	–	inconclusive: 1.78 µM [activator, partial curve, poor fit]
COc1ccccc1N(C(=O)c1ccco1)C(C(=O)NC1CCCC1)c1cccs1 (centres undefined)	inactive: -5.24% [at 46.1 µM]	–
COCCNC(=O)C(c1ccc(C)o1)N(C(=O)c1snc(C(N)=O)c1N)c1ccc(C)cc1 (centres undefined)	–	inconclusive: 4.61 µM [inhibitor, full curve, poor fit]

# Continuation:

Compound,"activity change, negative = inhibition",Potency
COc1ccc(-c2cc(-c3ccccc3)nc(SC(C)C(=O)O)c2C#N)cc1 (centres undefined),–,"inconclusive: 6.31 µM [inhibitor, full curve, poor fit]"
S=c1[nH]nc(-c2ccc(Br)cc2)n1-c1ccc2c(c1)OCCO2,inactive: -11.2%,–
Cc1ccccc1NS(=O)(=O)c1ccc(C(=O)NCC(C)(C)N2CCOCC2)cc1,inactive: -19.4%,–
O=c1[nH]c(C(Cl)(Cl)Cl)nc2ccc3ccccc3c12,–,"inconclusive: 22.4 µM [inhibitor, single point]"
Cc1cc(C)c(S(=O)(=O)N2CCCCC2)c(C)c1N(C)S(=O)(=O)c1ccccc1,–,"inconclusive: 32.6 µM [inhibitor, single point]"
O=C(Nc1nccs1)c1cccc(N2C(=O)C3C4C=CC(C4)C3C2=O)c1 (centres undefined),inactive: 4.27%,–
O=C(NCC1(c2ccccc2)CCCC1)C(=O)Nc1cccc(C(F)(F)F)c1,inactive: 29.7% [at 46.1 µM],–
NC(N)=NOCCC(N)C(=O)O (centres undefined),–,inactive
Cc1occc1C(=O)Nc1nnc(-c2cccs2)s1,–,"inconclusive: 1.58 µM [activator, partial curve, poor fit]"
Cc1ccc(-c2nn3c(C)nnc3c3ccccc23)cc1S(=O)(=O)NCCO,–,inactive
Cc1cccc(N(CC(=O)NC(C)c2ccccc2)S(=O)(=O)c2ccccc2)c1C (centres undefined),–,"inconclusive: 35.5 µM [inhibitor, single point]"
CCOC(=O)NC(=S)Nc1ccc(C(C)(C)C)cc1Br,–,"inconclusive: 5.62 µM [activator, single point]"
NC1=NC2(CCN(Cc3ccccc3)CC2)n2c(nc3ccccc32)N1,–,"inconclusive: 9.2 µM [inhibitor, partial curve, poor fit]"
COc1cccc(-c2nnc(NC(=O)c3ccc(S(=O)(=O)N4CCOCC4)cc3)o2)c1,–,"inconclusive: 20 µM [inhibitor, partial curve, poor fit]"
CC1=CN2C(=NC(=O)CC2(C)C(=O)N(CC(=O)NC2CCCC2)Cc2ccc(Cl)cc2)C=C1 (centres undefined),–,"inconclusive: 2.82 µM [activator, full curve, poor fit]"
COC(=O)c1cccc(NC(=O)c2cnccn2)c1,inactive: 1.65%,–
Cc1ccc(N=C2SCCCN2C(=O)c2ccco2)cc1Cl,–,"inconclusive: 35.5 µM [inhibitor, single point]"
Cc1ccc(-c2cn3cccc(C)c3n2)cc1NS(=O)(=O)c1ccccc1,inactive: 12.8% [at 46.1 µM],–
CC(=O)c1cn(C(=O)c2ccc(Cl)cc2)c2ccccc12,inactive: 9% [at 46.1 µM],–
CCN1C(=S)SC(=O)C1=C1C=C(C)OC(C)=C1,–,"inconclusive: 3.16 µM [activator, partial curve]"
CCOC(=O)Cc1csc(NC(=O)c2cc(C)on2)n1,inactive: 4.26% [at 46.1 µM],–
Cc1ccc(CN(Cc2ccco2)c2cnc(S(C)(=O)=O)nc2C(=O)Nc2ccc(Br)cc2)o1,–,"inconclusive: 3.55 µM [inhibitor, partial curve, poor fit]"
COc1ccc(CCN(C)C(=O)c2cc(S(=O)(=O)N3CCCCC3)ccc2Cl)cc1OC,–,"inconclusive: 20 µM [inhibitor, partial curve, poor fit]"
